The source of these data is patent US9969775B2 (Ferring B.V., priority 2015, dated 2018).

Data set [1] is described as follows: general procedure: Fmoc solid-phase peptide synthesis; Fmoc-Rink amide Chem Matrix resin; HBTU/NMM (Tribute; DIC/HOBt for cysteine); HATU/DIPEA or DIC/HOBt (433A); DIC/HO. Particulars: whole synthesis, scale 3.5 mmol, TFA salt.
Data set [2] is described as follows: general procedure: Fmoc solid-phase peptide synthesis; Fmoc-Rink amide MBHA resin; Fmoc-Rink amide ChemMatrix resin; HBTU/NMM (Tribute; DIC/HOBt for cysteine); HATU/DIPEA or DIC/HOBt (433A); DIC/HO. The conditions noted are these: whole synthesis; for final HPLC purity: reverse-phase analytical HPLC.
Data set [3] can be described thus: Fmoc solid-phase peptide synthesis; Rink Amide MBHA resin; HBTU/NMM (Tribute; DIC/HOBt for cysteine); HATU/DIPEA or DIC/HOBt (433A); DIC/HO. The conditions noted are these: whole synthesis, scale 0.15 mmol, TFA salt.
Data set [4] is described as follows: general procedure: Fmoc solid-phase peptide synthesis; Rink Amide MBHA resin; HBTU/NMM (Tribute; DIC/HOBt for cysteine); HATU/DIPEA or DIC/HOBt (433A); DIC/HO. Particulars: whole synthesis, overall yield based on 80% estimated peptide content, scale 0.15 mmol, trifluoroacetate or hydrochloride salts.
A short description of data set [5]: general procedure: Fmoc solid-phase peptide synthesis; Fmoc-Rink amide MBHA resin; HBTU/NMM (Tribute; DIC/HOBt for cysteine); HATU/DIPEA or DIC/HOBt (433A); DIC/HO. Particulars: whole synthesis, overall based on 89.6% peptide content, scale 1.95 mmol, hydrochloride salt.
The nature of data set [6]: Fmoc solid-phase peptide synthesis; Fmoc-Rink amide MBHA resin; HBTU/NMM (Tribute; DIC/HOBt for cysteine); HATU/DIPEA or DIC/HOBt (433A); DIC/HO. Particulars: whole synthesis, scale 1.95 mmol, hydrochloride salt.
A short description of data set [7]: general procedure: Fmoc solid-phase peptide synthesis; Rink amide MBHA resin; HBTU/NMM (Tribute; DIC/HOBt for cysteine); HATU/DIPEA or DIC/HOBt (433A); DIC/HO. The conditions noted are these: whole synthesis, scale 1.77 mmol, hydrochloride salt.
Where [8] appears, read: trifluoroacetate or hydrochloride salts.

Turning to “Oxazole-2-carbonyl-D-Val-Phe(2-Cbm)-c(Cys-Orn(iPr)-Asp-Val-Gly-Dhp-Phe(3-Cbm)-Cys)-3Pal-NH2”, the isolated mass in data set [1] is recorded as 116.2 mg. The isolated yield in data set [2] (overall based on 78.5% peptide content, scale 3.5 mmol, trifluoroacetate or hydrochloride salts) was found to be 14.1%. In addition, in data set [2] (setting [8]), the “final HPLC purity” value amounted to 98.3%.
As to “Oxazole-2-carbonyl-D-Val-Phe(2-Cbm)-c(Cys-Orn(iPr)-Asp-Val-Gly-Pro-3Pal-Cys)-3Pal-NH2”, in data set [3], the isolated mass was determined as 80.2 mg. For the same substance, the isolated yield in data set [4] was 30%. For the same substance, the “final HPLC purity” value in data set [2] (setting [8]) is on record as 96.8%.
“Oxazole-2-carbonyl-D-Val-Phe(2-Cbm)-c(Cys-Orn(iPr)-Asp-Val-Gly-Pro-Phe-Cys)-3Pal-NH2”: the isolated yield in data set [5] came out at 32.3%. Besides, the isolated mass in data set [6] is 1009.8 mg. Moreover, the “final HPLC purity” value in data set [2] (hydrochloride salt) is recorded as 90.7%.
For the substance “Picolinoyl(3,5-F2)-D-Val-Tyr-c(Cys-Orn(iPr)-Asp-Val-Gly-Pro-Phe-Cys)-3Pal-NH2”, in data set [7], the isolated mass is 583 mg. Moreover, the isolated yield in data set [2] (overall based on 87.3% peptide content and 98.8% purity, scale 1.77 mmol, trifluoroacetate or hydrochloride salts) is on record as 20%. Further, in data set [2] (setting [8]), the “final HPLC purity” value came out at 98.8%.
